Experimental data taken from patent publication US10072233B2, “Fragrance and flavor compositions comprising neopentyl glycol diacetate” (P2 SCIENCE, INC., priority 2015, dated 2018).

Test: Olfactory analysis on a fragrance blotter
Text: The aroma of neopentyl glycol diacetate may be evaluated by testing the compound on a fragrance blotter, a small strip of paper used to sample the compound in aqueous form. Rather than smell a fragrance ingredient directly from the vial in which it is contained, fragrance blotters are used to provide a more accurate representation of the smell of a given fragrance ingredient. The aroma at the surface of a vial containing a fragrance ingredient is mostly comprised of the aroma's top notes, which are strong, but evaporate quickly. Use of a fragrance blotter therefore provides a better indication of the overall scent of neopentyl glycol diacetate, including its middle, and base notes, which makes up the majority of the odor experienced from an ingredient once it has been imparted in a product.
Aqueous neopentyl glycol diacetate prepared by the method of Example 1 was sampled on a fragrance blotter to assess the compound's aroma.
Neopentyl glycol diacetate was first presented on a blotter neat.
A 10% dilution in triethylcitrate of neopentyl glycol diacetate synthesized by the method of Example 1 was then prepared and sampled on a blotter. […] The tenacity on the blotter was on the order of 5-10 hrs.

With `CC(=O)OCC(C)(C)COC(C)=O` [neopentyl glycol diacetate] as the compound, how does the “aroma on fragrance blotter” value (10% dilution in triethylcitrate) read?
The value was “pleasing aromatic effect”.

And the “tenacity on the blotter” value (10% dilution in triethylcitrate, the aroma's ability to be detected over a given time period)?
Its value is 5 to 10 h.

What about the “aroma on fragrance blotter” value (presented neat on a blotter) of the same compound?
Its value is “fresh, sweet, fruity, resinous, and myrrh-like, with notes of fattiness”.

What about the “aroma on fragrance blotter” value (presented neat on a blotter, listed as Neopentyl glycol diacetate) of the same compound?
The value was “sweet and described as fresh, fruity, resinous, and myrrh-like, with notes of fattiness”.
